PubChem BioAssay AID1259300 | Sanger Institute, 2017

- Screen: 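Kinase and colorectal-mutated gene knock-downs lowering HCT15 viability or boosting drug effects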 (primary screen)
- Cells: HCT15 colorectal cancer cells
- Reagent: siRNA pool against human genes
- Conditions: anchor drug or DMSO vehicle added 24 h after seeding: BYL719 1 µM, cetuximab 5 µg/ml, trametinib 10 nM; drug doses chosen to barely affect viability alone
- Detection: 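Cell viability after knock-down, as fraction of non-targeting pool wells averaged over replicates, plus robust z-score for knock-down alone; synergy score per drug (BYL719 1 µM, cetuximab 5 µg/ml, trametinib 10 nM)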
- Direction: viability z-score, siRNA alone: higher = more viable cells after knock-down; viability vs non-targeting, siRNA alone: higher = more viable cells; synergy score with BYL719 and synergy score with cetuximab and synergy score with trametinib: higher = stronger synergy of knock-down with drug
- Active means: 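a knock-down without drug that drives the robust viability z-score under -3 is active, i.e. essential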
- Meaning of the calls: active = essential: knock-down alone lowers viability (z below -3); inactive = no strong viability loss with knock-down alone
Shown is an unselected part of 794 reagents tested. Of all reagents, 18 (2.3%) got an active call. 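Calls rest on knock-down alone, not drug synergy; depositor treated synergy scores above 0.15 as synergistic; drug doses alone had little viability effect.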 Unmarked entries are inactive. Viability is capped at 1. Reagent sequences are not shown. Not given: the amount of reagent, the time to read-out.

| Target gene | viability z-score, siRNA alone | viability vs non-targeting, siRNA alone | synergy score with BYL719 | synergy score with cetuximab | synergy score with trametinib |
| --- | --- | --- | --- | --- | --- |
| BCKDK | 0.625 | 1 | 0.117 | 0.009 | -0.0279 |
| EPHA4 | 0.321 | 0.978 | 0.111 | 0.0618 | 0.0557 |
| NUAK2 | -0.494 | 0.919 | 0.225 | 0.137 | 0.074 |
| LATS2 | 0.625 | 1 | 0.128 | 0.000566 | 0.0321 |
| NTRK3 | 0.625 | 1 | 0.0172 | 0.0692 | -0.0984 |
| LIMK1 | -0.00148 | 0.954 | 0.0794 | 0.0156 | -0.139 |
| BMX | 0.625 | 1 | 0.138 | 0.0375 | 0.00888 |
| PLK4 | 0.625 | 1 | 0.216 | 0.178 | 0.0943 |
| ERBB4 | 0.625 | 1 | 0.26 | 0.0187 | 0.0307 |
| PRKD3 | 0.625 | 1 | 0.335 | 0.112 | 0.129 |
| GUCY2EP | 0.087 | 0.961 | 0.224 | 0.0761 | 0.0324 |
| BUB1 | 0.625 | 1 | 0.0651 | 0.055 | -0.0984 |
| DCLK2 | -0.574 | 0.913 | 0.0471 | 0.136 | -0.143 |
| ULK2 | -0.346 | 0.929 | 0.206 | 0.0756 | 0.0686 |
| SPHK2 | -0.787 | 0.897 | 0.109 | -0.0267 | -0.0926 |
| CAMKV | 0.625 | 1 | 0.143 | 0.108 | -0.0984 |
| PRKCH | -2.43 | 0.778 | 0.182 | -0.0932 | -0.00291 |
| ITPK1 | 0.209 | 0.97 | 0.133 | 0.083 | -0.0975 |
| BMPR1A | 0.625 | 1 | -0.0556 | 0.0617 | -0.0215 |
| CMPK1 | 0.625 | 1 | 0.0864 | 0 | -0.00896 |
| CDC42BPA | 0.625 | 1 | 0.156 | 0.1 | 0.0114 |
| CDK15 | 0.625 | 1 | 0.039 | 0.0995 | -0.0975 |
| CIT | 0.163 | 0.966 | 0.266 | 0.0981 | 0.0243 |
| MAGI2 | -0.804 | 0.896 | 0.0752 | 0.0689 | -0.162 |
| PANK2 | 0.625 | 1 | 0.254 | 0.0422 | -0.0782 |
| GRK2 | 0.625 | 1 | 0.126 | 0 | 0.0688 |
| XYLB | -0.877 | 0.891 | 0.0303 | -0.109 | -0.105 |
| NLK | -1.28 | 0.862 | 0.109 | -0.0337 | -0.131 |
| PI4KB | 0.625 | 1 | 0.0574 | 0 | -0.00158 |
| PI4KA | 0.625 | 1 | 0.0883 | 0 | -0.0203 |
| CHD9 | 0.459 | 0.988 | 0.179 | 0.0168 | 0.014 |
| EEF2K | -1.24 | 0.864 | 0.133 | -0.0298 | -0.106 |
| STK4 | -2.46 | 0.775 | -0.0746 | -0.142 | -0.286 |
| ADGRL2 | 0.625 | 1 | 0.0475 | 0.108 | -0.0478 |
| IGF1R | 0.521 | 0.992 | 0.159 | 0.0223 | -0.036 |
| PRKG2 | 0.0859 | 0.961 | 0.297 | -0.0392 | 0.00114 |
| ERBB2 | 0.406 | 0.984 | 0.134 | 0.0671 | 0.0362 |
| ACVR1C | -0.362 | 0.928 | 0.00602 | -0.00399 | -0.0579 |
| ADK | -0.445 | 0.922 | 0.0518 | -0.0778 | -0.0968 |
| FCSK | 0.625 | 1 | 0.0964 | 0.133 | 0.0774 |
| MAST2 | 0.625 | 1 | 0.209 | 0.0717 | 0.0538 |
| NEK2 | 0.625 | 1 | 0.213 | 0.0952 | -0.0583 |
| AKAP9 | 0.14 | 0.965 | 0.0926 | -0.0353 | -0.0754 |
| TSKS | -0.287 | 0.934 | -0.139 | 0.0176 | -0.145 |
| MAGI3 | 0.625 | 1 | 0.126 | 0.0109 | -0.0984 |
| MAPK12 | 0.625 | 1 | 0.133 | 0.0424 | -0.0984 |
| HCK | 0.495 | 0.991 | 0.0141 | 0.0498 | -0.095 |
| RET | 0.625 | 1 | 0.0969 | 0.0681 | 0.0428 |
| PXK | 0.625 | 1 | 0.0769 | 0.0504 | -0.0752 |
| SRPK2 | 0.605 | 0.999 | 0.0931 | 0.0229 | 0.0869 |

5 successive entries already listed, for reference:
| Target gene | viability z-score, siRNA alone | viability vs non-targeting, siRNA alone | synergy score with BYL719 | synergy score with cetuximab | synergy score with trametinib |
| --- | --- | --- | --- | --- | --- |
| MAST2 | 0.625 | 1 | 0.209 | 0.0717 | 0.0538 |
| NEK2 | 0.625 | 1 | 0.213 | 0.0952 | -0.0583 |
| AKAP9 | 0.14 | 0.965 | 0.0926 | -0.0353 | -0.0754 |
| TSKS | -0.287 | 0.934 | -0.139 | 0.0176 | -0.145 |
| MAGI3 | 0.625 | 1 | 0.126 | 0.0109 | -0.0984 |
